Assay results published in patent US20040248767A1 (AUTOGEN RESEARCH, published 2004).
No constants are given. Whether binding was seen depends on the method and setting. Some binding calls cover weakened binding; strength is not graded here. Tags and fused reporters may be left off the sequences shown. Blank lines part the entries; values can stand above or below the binder they belong to.

How the values were obtained:
[1] = molecular target: T1, Serum amyloid A (SAA) purified from human sera / human plasma (Trace Scientific) (human) (UniProt P0DJI8); test: SPR (Biacore J), human plasma SAA on CM5 chip, GST-Tanis-C as analyte (FIGS. 10A and B)
T1 sequence (looked up): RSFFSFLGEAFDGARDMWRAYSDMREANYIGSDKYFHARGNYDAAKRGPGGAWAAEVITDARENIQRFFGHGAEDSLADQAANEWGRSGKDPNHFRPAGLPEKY

[2] = molecular target: T1, Serum amyloid A (SAA) purified from human sera / human plasma (Trace Scientific) (human); test: SPR (Biacore J), human plasma SAA on CM5 chip, GST-Tanis-C 5 µg as analyte (FIG. 10A, B)
[3] = molecular target: T2, GST-Tanis-C (COOH-terminal fragment of Tanis, amino acids 54-189) (human); test: SPR (Biacore J), GST-Tanis-C on CM5 chip, human plasma SAA 5 µg as analyte (FIG. 10C)
T2 sequence: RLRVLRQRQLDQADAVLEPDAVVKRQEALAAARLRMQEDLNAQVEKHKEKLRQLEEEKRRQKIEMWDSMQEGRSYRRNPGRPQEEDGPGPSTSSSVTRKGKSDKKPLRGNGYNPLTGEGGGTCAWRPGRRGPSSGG

[4] = molecular target: T2, GST-Tanis-C (COOH-terminal fragment of Tanis, amino acids 54-189) (human); test: SPR (Biacore J), GST-Tanis-C on CM5 chip, human plasma SAA as analyte (FIG. 10C)
[5] = molecular target: T1, Serum amyloid A (SAA) purified from human sera / human plasma (Trace Scientific) (human); test: SPR (Biacore J), SAA on CM5 chip, GST-fused fragment injected
[6] = molecular target: T1, Serum amyloid A (SAA) purified from human sera / human plasma (Trace Scientific) (human); test: SPR (Biacore J), SAA on chip, Tanis Cplus protein injected

- binding [1]: binds
- binding [2]: binds
B1: GST-Tanis-C (COOH-terminal fragment of Tanis, amino acids 54-189) (protein, not shown: a dimerising Fc or GST; small tags and cut ends)
chain: T2 sequence

- binding [3]: binds
- binding [4]: binds
B2: Serum amyloid A (SAA) purified from human sera / human plasma (Trace Scientific) (ligand, UniProt P0DJI8 19-122, looked up)
chain: T1 sequence (looked up)
notes: also called human plasma SAA

- binding [5]: binds
- binding [6]: binds
B3: GST-fused C-plus tanis (53-189aa) (protein, not shown: a dimerising Fc or GST; small tags and cut ends)
chain: VRLRVLRQRQLDQADAVLEPDAVVKRQEALAAARLRMQEDLNAQVEKHKEKLRQLEEEKRRQKIEMWDSMQEGRSYRRNPGRPQEEDGPGPSTSSSVTRKGKSDKKPLRGNGYNPLTGEGGGTCAWRPGRRGPSSGG
